Binding data for one molecule are collected here from PMC6433294, “Differential thermal stability, conformational stability and unfolding behavior of Eis proteins from Mycobacterium smegmatis and Mycobacterium tuberculosis” (PLoS ONE, 2019).

The assay has as its target M. smegmatis Eis (MSMEG_3513) protein (M. smegmatis) (UniProt A0QY29). The assay can be described thus: condition: only in SDS (loading dye with 1% SDS, SDS-PAGE), unboiled; SDS-PAGE of unboiled sample; 10 ug unboiled protein on 8% SDS-PAGE, loading dye with 1% SDS, 0.125 M Tris pH 6.8, 40% glycerol; Coomassie stain; both purified.

Results are given in words; binding and its absence hold for the method and conditions named.

B1: M. smegmatis Eis (MSMEG_3513) protein (enzyme, UniProt A0QY29 1-402, looked up)
chain: MITPRTLHTITDDDWTRIALLARFAFGDIEPEQTQAAWRSMVPEDATVVVPDETDDAFVGQSLYLDMQLTVPGGEVLPVAGISFVAVAPTHRRRGVLRAMYTELHDRIARAGYPLAVLTASEGGIYGRFGYGVATIEQHVSVDRRLAQFHPAAPDPGGVRMLVPADHRDGLADIYDRWRRRTPGGLVRPDALWDDLLADRPESRRGGGELFAFGHQDGYALYRVDRGPDGRRSAHVVELTAVTADAHAALWRALLGLDLIDRVSIGTHPHDPLPYLLTDPRQAQVTASADDLWIRIMNVPAALEARRYQADLDVVLDVADGFRSDGGRFALQISGGRARCTTTDAPADIEIDLDVLGGLYLGAHRVDGFAAANRLRSKDSELLQQFGAAFAGDMPAELGYGF
notes: also called MsEis; Enhanced Intracellular Survival protein from M. smegmatis
Consider B1, for which the binding result was “no binding”.
